In US11629165B2, “Molecules for targeting ribosomes and ribosome-interacting proteins, and uses thereof” (Immagina Biotechnology S.r.l., priority 2018, dated 2023):

Test system: cellular proteins of HEK-293 and MCF7 cell lines
Test: 3Px probe protein labelling, UV irradiation, anti-puromycin immunoblot
Type: cell-based
Settings: MCF7, different concentrations, 10 min
Protocol: For our initial analysis, we treated HEK-293 and MCF7 cell lines in complete culture medium with the 3PB probe (10 μM) for 10 min, followed by irradiation for 5 min on ice (total power: 0.75 J/cm2). We first assessed 3PB labeling of cellular proteins using SDS-PAGE analysis. […] Then, we compared the labelling activity of 3PB, 3PA and 3PBis in HEK293 and MCF7 cells, adding the probes before or after cell lysis. In the latter case, each probe is incubated for 1 h in the cytoplasmic cell extract at 4° C., followed by UV irradiation (0.75 J/cm^2) of the treated lysate. […] Therefore, both 3PB and 3PBis show additional bands with MW=˜50 kDa, when reacted in the cell lysate, with respect to the situation when probes are incubated with growing cells (FIG. 6a). […] This is presumably due to the higher hydrophobicity of the 3PBis probe and a consequent better cell membrane penetration (FIG. 7).
To test 3PN and 3PO activity, we treated MCF7 cells with different concentrations of the two drugs for 10 min, followed by UV-356 irradiation.
Reaction in cell culture: MCF7 or HEK-293 cells were grown to 80% of confluence and treated with CHX (10 μg/mL, 5 min, 37° C.) and then with the probe (10 min, 37 C). […]

Structure (SMILES)	MW of main puromycin-tag band
C#CCOc1cc(C2(C(F)(F)F)N=N2)ccc1C(=O)N[C@@H](Cc1ccc(OC)cc1)C(=O)N[C@H]1[C@@H](O)[C@H](n2cnc3c(N(C)C)ncnc32)O[C@@H]1CO [3PN]	about 65 kDa
COc1ccc(CC(NC(=O)C(CCN=[N+]=N)NC(=O)CCC2(C)N=N2)C(=O)NC2C(CO)OC(n3cnc4c(N(C)C)ncnc43)C2O)cc1 (centres unmarked) [3PO]	about 65 kDa
